Paper PMC12518639, “Apomorphine is a novel necroptosis inhibitor targeting mixed lineage kinase domain-like protein oligomerization” (Cell Death Discovery, 2025)

System: THP-1-HMGB1-Lucia cells
Assay: TBZ-induced necroptosis screening by HMGB1-luciferase release
Type: cell-based
Settings: Homo sapiens; 20 μM compound with TBZ, 8 h; TBZ alone = 100, DPBS = 0; read-out: % Inhibition (luciferase activity relative to TBZ-treated supernatant)
Method: To identify potential inhibitors of the necroptosis pathway targeting MLKL or the process of p-MLKL pore formation on the membrane, we screened a library of 2150 compounds, including FDA-approved drugs and those in phase 1–3 clinical trials, using THP-1-HMGB1-Lucia™ cells expressing the HMGB1-luciferase fusion protein. The cells were treated with a necroptosis-inducing mixture containing TNF-α, BV6, and Z-VAD-FMK (TBZ) in addition to the compound library (Fig. 1A). The supernatants were harvested to measure luciferase activities for necroptosis. The luciferase activities of cell supernatants treated with TBZ alone were considered as the maximum release (100%) of HMGB1-luciferase. NEC-1, a known RIP1 inhibitor used in both humans and mice, was used as a positive control. […] Next, we performed a propidium iodide (PI) uptake assay to exclude cytotoxic compounds using THP-1 cells. […]
THP-1-HMGB1-Lucia^TM cells were pretreated with the pan-caspase inhibitor Z-VAD-FMK (50 μM, tlrl-vad, InvivoGen) and each chemical for 1 h, and followed by TNF-α (100 ng/mL, TNF0501, NKMAXBio, Seongnam, S. Korea) and Smac mimetic BV6 (10 μM, B1332-5, Biovision, Santa Clara, CA, USA), termed TBZ mixture, were added for necroptosis screening. […] The inhibition of necroptosis (%) was calculated as: (sample-treated data – medium-only data) × 100/(TBZ-treated data – medium-only data). […]

| Compound | activity at 20 µM [%] |
| --- | --- |
| Clc1ccc(CSC(Cn2ccnc2)c2ccc(Cl)cc2Cl)cc1 (centres unmarked) [S53, Exelderm] | 8.7 |
| Clc1ccc(CO/N=C(\Cn2ccnc2)c2ccc(Cl)cc2Cl)c(Cl)c1 [S67, Oxiconazole nitrate] | 7.1 |
